In PMC8384837:
Numbering of substitutions follows the chain as printed. Some of the results follow. For some assays here: At the low end of the ranking the order means little.

Experiments:
Conditions in all cases: yeast three-hybrid, YBZ-1, SC-Leu-His + 0.5 mM 3-AT, 4 days
[1] = molecular target: T1, PUM1 PUF domain R5-FQR C1007F + R1008Q + Q1011R (Homo sapiens) (UniProt Q14671)
T1 sequence: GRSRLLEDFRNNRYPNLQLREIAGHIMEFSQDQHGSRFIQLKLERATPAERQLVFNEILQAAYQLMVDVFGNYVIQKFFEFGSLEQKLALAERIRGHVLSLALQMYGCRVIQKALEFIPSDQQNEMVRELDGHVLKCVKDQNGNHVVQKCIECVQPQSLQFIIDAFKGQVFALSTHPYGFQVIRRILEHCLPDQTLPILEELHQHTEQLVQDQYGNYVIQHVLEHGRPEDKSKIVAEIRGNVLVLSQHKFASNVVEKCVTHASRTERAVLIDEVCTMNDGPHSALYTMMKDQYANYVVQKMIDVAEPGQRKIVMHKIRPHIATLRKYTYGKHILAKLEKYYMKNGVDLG

[2] = molecular target: T2, PUM1 PUF domain R5-FRC C1007F + Q1011C (Homo sapiens) (UniProt Q14671)
T2 sequence: T1 sequence with Q181R, R184C

[3] = molecular target: T3, PUM1 PUF domain R5-FRG C1007F + Q1011G (Homo sapiens) (UniProt Q14671)
T3 sequence: T1 sequence with Q181R, R184G

[4] = molecular target: T4, PUM1 PUF domain R5-FRT C1007F + Q1011T (Homo sapiens) (UniProt Q14671)
T4 sequence: T1 sequence with Q181R, R184T

[5] = molecular target: T5, PUM1 PUF domain R5-FRV C1007F + Q1011V (Homo sapiens) (UniProt Q14671)
T5 sequence: T1 sequence with Q181R, R184V

[6] = molecular target: T6, PUM1 PUF domain R5-FRY C1007F + Q1011Y (Homo sapiens) (UniProt Q14671)
T6 sequence: T1 sequence with Q181R, R184Y

[7] = molecular target: T7, PUM1 PUF domain R5-GGE C1007G + R1008G + Q1011E (UniProt Q14671)
T7 sequence: T1 sequence with F180G, Q181G, R184E

[8] = molecular target: T8, PUM1 PUF domain R5-GGR C1007G + R1008G + Q1011R (Homo sapiens) (UniProt Q14671)
T8 sequence: T1 sequence with F180G, Q181G

[9] = molecular target: T9, PUM1 PUF domain R5-GKD C1007G + R1008K + Q1011D (Homo sapiens) (UniProt Q14671)
T9 sequence: T1 sequence with F180G, Q181K, R184D

[10] = molecular target: T10, PUM1 PUF domain R5-GKE C1007G + R1008K + Q1011E (Homo sapiens) (UniProt Q14671)
T10 sequence: T1 sequence with F180G, Q181K, R184E

[11] = molecular target: T11, PUM1 PUF domain R5-GKH C1007G + R1008K + Q1011H (Homo sapiens) (UniProt Q14671)
T11 sequence: T1 sequence with F180G, Q181K, R184H

[12] = molecular target: T12, PUM1 PUF domain R5-GKN C1007G + R1008K + Q1011N (Homo sapiens) (UniProt Q14671)
T12 sequence: T1 sequence with F180G, Q181K, R184N

[13] = molecular target: T13, PUM1 PUF domain R5-GKS C1007G + R1008K + Q1011S (Homo sapiens) (UniProt Q14671)
T13 sequence: T1 sequence with F180G, Q181K, R184S

[14] = molecular target: T14, PUM1 PUF domain R5-GNW C1007G + R1008N + Q1011W (UniProt Q14671)
T14 sequence: T1 sequence with F180G, Q181N, R184W

[15] = molecular target: T15, PUM1 PUF domain R5-GPR C1007G + R1008P + Q1011R (Homo sapiens) (UniProt Q14671)
T15 sequence: T1 sequence with F180G, Q181P

[16] = molecular target: T16, PUM1 PUF domain R5-GQW C1007G + R1008Q + Q1011W (Homo sapiens) (UniProt Q14671)
T16 sequence: T1 sequence with F180G, R184W

[17] = molecular target: T17, PUM1 PUF domain R5-GSE C1007G + R1008S + Q1011E (UniProt Q14671)
T17 sequence: T1 sequence with F180G, Q181S, R184E

[18] = molecular target: T18, PUM1 PUF domain R5-GSK C1007G + R1008S + Q1011K (UniProt Q14671)
T18 sequence: T1 sequence with F180G, Q181S, R184K

[19] = molecular target: T19, PUM1 PUF domain R5-GTE C1007G + R1008T + Q1011E (Homo sapiens) (UniProt Q14671)
T19 sequence: T1 sequence with F180G, Q181T, R184E

[20] = molecular target: T20, PUM1 PUF domain R5-GTR C1007G + R1008T + Q1011R (Homo sapiens) (UniProt Q14671)
T20 sequence: T1 sequence with F180G, Q181T

GGCUAGAACUAGUGGAUCCCCCGGCGCCCGGCGGCUCGAGCCCGGGUAAGUGUAAAUAGUCUGCAUGCCGCCGGGCGCCAUGCCUGCAGGUCGACUCUAGAAAACAUG
binding signal (log2 enrichment (interaction score)) [1]: -1.02
binding signal (log2 enrichment (interaction score)) [2]: 0.54
binding signal (log2 enrichment (interaction score)) [3]: 0.04
binding signal (log2 enrichment (interaction score)) [4]: 0.12
binding signal (log2 enrichment (interaction score)) [5]: -0.2
binding signal (log2 enrichment (interaction score)) [6]: -0.75
binding signal (log2 enrichment (interaction score)) [7]: -2.95
binding signal (log2 enrichment (interaction score)) [8]: -0.59
binding signal (log2 enrichment (interaction score)) [9]: 0.32
binding signal (log2 enrichment (interaction score)) [10]: -0.06
binding signal (log2 enrichment (interaction score)) [11]: -0.81
binding signal (log2 enrichment (interaction score)) [12]: 0.23
binding signal (log2 enrichment (interaction score)) [13]: -0.26
binding signal (log2 enrichment (interaction score)) [14]: < -5.53
binding signal (log2 enrichment (interaction score)) [15]: -0.81
binding signal (log2 enrichment (interaction score)) [16]: -1.05
binding signal (log2 enrichment (interaction score)) [17]: -3.18
binding signal (log2 enrichment (interaction score)) [18]: -2.42
binding signal (log2 enrichment (interaction score)) [19]: -2.33
binding signal (log2 enrichment (interaction score)) [20]: -1.82
